Test results as given in article doi:10.1101/090100.
These are yes or no findings as the source states them, for the method shown. In cells and extracts the contact can be indirect. A result given as binding can be weak or reduced; the word gives no strength.

Sequences of proteins named here, by UniProt entry; tags and fusion partners are left off. A change or cut given only in a name is not applied to a line headed by its entry.
UniProt O95071: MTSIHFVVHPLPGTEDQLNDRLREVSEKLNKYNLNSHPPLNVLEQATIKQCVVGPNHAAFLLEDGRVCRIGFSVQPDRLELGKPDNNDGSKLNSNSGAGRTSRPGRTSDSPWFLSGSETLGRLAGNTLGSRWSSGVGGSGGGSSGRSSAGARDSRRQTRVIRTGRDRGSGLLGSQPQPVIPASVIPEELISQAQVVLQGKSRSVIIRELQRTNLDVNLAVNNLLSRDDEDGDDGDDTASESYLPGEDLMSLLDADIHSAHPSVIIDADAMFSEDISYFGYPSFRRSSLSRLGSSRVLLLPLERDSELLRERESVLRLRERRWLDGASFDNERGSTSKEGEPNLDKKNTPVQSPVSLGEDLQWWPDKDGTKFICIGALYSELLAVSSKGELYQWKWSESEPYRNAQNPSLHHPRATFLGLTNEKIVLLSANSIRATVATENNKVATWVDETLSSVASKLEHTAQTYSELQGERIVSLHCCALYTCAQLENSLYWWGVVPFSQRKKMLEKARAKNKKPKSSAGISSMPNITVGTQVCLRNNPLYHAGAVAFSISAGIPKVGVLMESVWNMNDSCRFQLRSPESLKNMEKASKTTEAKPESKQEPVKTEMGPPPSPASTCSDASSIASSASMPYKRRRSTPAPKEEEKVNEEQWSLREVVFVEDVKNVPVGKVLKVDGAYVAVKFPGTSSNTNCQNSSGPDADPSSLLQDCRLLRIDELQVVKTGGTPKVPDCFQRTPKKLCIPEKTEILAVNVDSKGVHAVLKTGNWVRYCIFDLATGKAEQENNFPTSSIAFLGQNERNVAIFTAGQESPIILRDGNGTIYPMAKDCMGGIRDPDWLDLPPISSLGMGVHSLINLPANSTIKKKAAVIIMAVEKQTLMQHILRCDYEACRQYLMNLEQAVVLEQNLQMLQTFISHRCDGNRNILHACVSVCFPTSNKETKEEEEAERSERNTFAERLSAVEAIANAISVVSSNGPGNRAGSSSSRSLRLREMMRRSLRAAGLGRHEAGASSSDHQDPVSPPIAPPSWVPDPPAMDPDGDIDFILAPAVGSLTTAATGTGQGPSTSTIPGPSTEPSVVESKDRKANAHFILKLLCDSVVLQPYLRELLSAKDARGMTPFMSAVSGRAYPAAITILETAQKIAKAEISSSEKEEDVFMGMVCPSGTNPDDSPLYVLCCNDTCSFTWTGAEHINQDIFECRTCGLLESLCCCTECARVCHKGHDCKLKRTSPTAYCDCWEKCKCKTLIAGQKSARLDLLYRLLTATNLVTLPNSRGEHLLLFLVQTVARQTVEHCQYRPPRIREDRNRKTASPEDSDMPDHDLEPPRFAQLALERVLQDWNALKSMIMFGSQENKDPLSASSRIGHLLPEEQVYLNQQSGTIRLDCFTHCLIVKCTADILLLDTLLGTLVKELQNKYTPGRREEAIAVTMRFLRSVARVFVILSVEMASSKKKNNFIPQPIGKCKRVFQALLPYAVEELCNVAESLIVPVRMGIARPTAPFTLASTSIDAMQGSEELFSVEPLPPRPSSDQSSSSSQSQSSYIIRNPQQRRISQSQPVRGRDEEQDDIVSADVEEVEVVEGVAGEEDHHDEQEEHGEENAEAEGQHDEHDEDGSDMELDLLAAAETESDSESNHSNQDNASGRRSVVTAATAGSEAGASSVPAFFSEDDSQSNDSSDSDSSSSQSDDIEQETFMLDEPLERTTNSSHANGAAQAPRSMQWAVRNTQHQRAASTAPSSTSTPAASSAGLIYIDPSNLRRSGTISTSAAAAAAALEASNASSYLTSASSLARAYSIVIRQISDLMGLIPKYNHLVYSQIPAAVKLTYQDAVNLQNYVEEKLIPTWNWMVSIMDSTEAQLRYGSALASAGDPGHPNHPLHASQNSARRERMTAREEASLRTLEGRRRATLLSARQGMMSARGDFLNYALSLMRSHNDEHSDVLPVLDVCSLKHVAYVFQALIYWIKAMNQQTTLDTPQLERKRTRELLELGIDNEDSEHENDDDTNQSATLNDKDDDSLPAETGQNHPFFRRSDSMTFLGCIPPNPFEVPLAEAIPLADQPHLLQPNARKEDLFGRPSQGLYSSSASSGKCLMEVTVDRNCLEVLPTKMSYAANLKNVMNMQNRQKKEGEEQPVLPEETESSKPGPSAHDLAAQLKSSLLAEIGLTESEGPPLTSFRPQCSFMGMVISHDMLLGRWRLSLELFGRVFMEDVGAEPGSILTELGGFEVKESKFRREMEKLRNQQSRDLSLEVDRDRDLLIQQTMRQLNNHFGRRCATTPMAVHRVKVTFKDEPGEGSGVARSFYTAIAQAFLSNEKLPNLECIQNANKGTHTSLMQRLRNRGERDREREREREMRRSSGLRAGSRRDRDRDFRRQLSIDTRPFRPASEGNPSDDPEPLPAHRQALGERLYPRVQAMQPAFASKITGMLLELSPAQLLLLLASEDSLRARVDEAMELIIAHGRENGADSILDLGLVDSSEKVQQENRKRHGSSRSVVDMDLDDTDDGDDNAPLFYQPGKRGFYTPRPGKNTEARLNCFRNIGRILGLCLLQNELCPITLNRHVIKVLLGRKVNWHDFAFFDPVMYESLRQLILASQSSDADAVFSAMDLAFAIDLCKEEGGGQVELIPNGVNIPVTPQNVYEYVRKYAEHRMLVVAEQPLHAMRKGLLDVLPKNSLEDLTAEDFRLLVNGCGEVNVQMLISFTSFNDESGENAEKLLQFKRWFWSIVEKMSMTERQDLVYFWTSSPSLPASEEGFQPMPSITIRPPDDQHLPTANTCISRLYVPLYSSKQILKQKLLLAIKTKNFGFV
UniProt P23258: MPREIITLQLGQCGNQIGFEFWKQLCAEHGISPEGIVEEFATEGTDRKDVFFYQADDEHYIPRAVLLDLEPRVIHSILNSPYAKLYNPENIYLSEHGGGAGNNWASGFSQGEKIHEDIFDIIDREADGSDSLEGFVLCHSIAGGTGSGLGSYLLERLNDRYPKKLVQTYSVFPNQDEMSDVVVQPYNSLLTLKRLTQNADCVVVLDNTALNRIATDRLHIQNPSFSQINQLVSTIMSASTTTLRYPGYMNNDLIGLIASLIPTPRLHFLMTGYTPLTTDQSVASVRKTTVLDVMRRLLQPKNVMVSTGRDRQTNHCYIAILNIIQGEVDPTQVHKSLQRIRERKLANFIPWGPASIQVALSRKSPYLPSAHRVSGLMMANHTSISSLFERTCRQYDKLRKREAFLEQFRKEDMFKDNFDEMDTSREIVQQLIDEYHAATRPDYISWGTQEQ

Biological target: GFP-UBR5 (wild-type) (UniProt O95071)
Experiment: co-IP

Question: With γ-tubulin (from UniProt P23258) as the substance, how does the binding read?
Answer: The binding was “binds”.
